The text below walks through data of the supplement of paper PMC4604168 (melanoma cell lines).

Some of the results follow. Repeats are few or missing, and single values can be far off.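 Cells were imaged in 1,536-well plates, and nuclei stained with an antibody against cleaved PARP were counted against all DNA-stained nuclei to give the apoptosis fraction. Screening doses were chosen to leave most cells alive, and resting and induced cleaved-PARP levels differ strongly between cell lines.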

For the test, the system named is MZ2-MEL. Description: cleaved PARP positive nuclei fraction relative to DMSO control; melanoma cells; higher = more apoptosis. As to conditions: library dose: low library concentration; 72 h.
As for `Cc1cc(Nc2cc(N3CCN(C)CC3)nc(Sc3ccc(NC(=O)C4CC4)cc3)n2)n[nH]1` [Tozasertib] + Nc1nc(F)nc2c1ncn2[C@@H]1O[C@H](CO)[C@@H](O)[C@@H]1O [fludarabine] (first compound 0.006 µM, partner dose 0.2 µM), the “cleaved PARP positive nuclei fraction” value is 21.5%.

For `O=C(/C=C/c1cccnc1)NCCCCC1CCN(C(=O)c2ccccc2)CC1` + CCCS(=O)(=O)Nc1ccc(F)c(C(=O)c2c[nH]c3ncc(Cl)cc23)c1F [PLX4720] (first compound 0.01 µM, partner dose 0.08 µM), the “cleaved PARP positive nuclei fraction” value came out at 844%.

With `O=C(/C=C/c1cccnc1)NCCCCC1CCN(C(=O)c2ccccc2)CC1` + CC(=O)c1c(C)c2cnc(Nc3ccc(N4CCNCC4)cn3)nc2n(C2CCCC2)c1=O [palbociclib] (first compound 0.01 µM, partner dose 0.04 µM), the “cleaved PARP positive nuclei fraction” value stood at 779%.

Consider `CCCCCCCCCCCCCCCCCCOP(=O)([O-])OC1CC[N+](C)(C)CC1` [Perifosine] + CCCCCCCCc1ccc(CCC(N)(CO)CO)cc1 [fingolimod] (first compound 0.4 µM, partner dose 2 µM), for which the “cleaved PARP positive nuclei fraction” value is 65.7%.

As to `CC[C@]1(O)C[C@H]2CN(CCc3c([nH]c4ccccc34)[C@@](C(=O)OC)(c3cc4c(cc3OC)N(C=O)[C@H]3[C@@](O)(C(=O)OC)[C@H](OC(C)=O)[C@]5(CC)C=CCN6CC[C@]43[C@@H]65)C2)C1` [vincristine] + Nc1ncn([C@H]2C[C@H](O)[C@@H](CO)O2)c(=O)n1 [decitabine] (first compound 0.0001 µM, partner dose 0.1 µM), the “cleaved PARP positive nuclei fraction” value was determined as 90.3%.

For `O=c1[nH]nc(Sc2ncc([N+](=O)[O-])s2)n1-c1ccc2c(c1)OCCO2` + CC1(C)CCC(c2ccc(Cl)cc2)=C(CN2CCN(c3ccc(C(=O)NS(=O)(=O)c4ccc(N[C@H](CCN5CCOCC5)CSc5ccccc5)c(S(=O)(=O)C(F)(F)F)c4)cc3)CC2)C1 [ABT263] (first compound 0.2 µM, partner dose 0.4 µM), the “cleaved PARP positive nuclei fraction” value turned out to be 335%.

Take `O=c1[nH]nc(Sc2ncc([N+](=O)[O-])s2)n1-c1ccc2c(c1)OCCO2` + C=C(c1ccc(C(=O)O)cc1)c1cc2c(cc1C)C(C)(C)CCC2(C)C [Bexarotene] (first compound 0.2 µM, partner dose 2 µM): the “cleaved PARP positive nuclei fraction” value turned out to be 112%.

For `CC[C@]1(O)C[C@H]2CN(CCc3c([nH]c4ccccc34)[C@@](C(=O)OC)(c3cc4c(cc3OC)N(C=O)[C@H]3[C@@](O)(C(=O)OC)[C@H](OC(C)=O)[C@]5(CC)C=CCN6CC[C@]43[C@@H]65)C2)C1` [vincristine] + COc1ccc(C2=N[C@@H](c3ccc(Cl)cc3)[C@@H](c3ccc(Cl)cc3)N2C(=O)N2CCNC(=O)C2)c(OC(C)C)c1 [Nutlin-3] (first compound 0.0001 µM, partner dose 0.1 µM), the “cleaved PARP positive nuclei fraction” value amounted to 93.6%.

As for `COc1cc([C@@H]2c3cc4c(cc3[C@@H](O[C@@H]3O[C@@H]5CO[C@@H](C)O[C@H]5[C@H](O)[C@H]3O)[C@H]3COC(=O)[C@H]23)OCO4)cc(OC)c1O` [etoposide] + C[C@@H](Oc1cc(-c2cnn(C3CCNCC3)c2)cnc1N)c1c(Cl)ccc(F)c1Cl [Crizotinib] (first compound 0.02 µM, partner dose 0.2 µM), the “cleaved PARP positive nuclei fraction” value stood at 88.9%.

As to `CC[C@]1(O)C[C@H]2CN(CCc3c([nH]c4ccccc34)[C@@](C(=O)OC)(c3cc4c(cc3OC)N(C=O)[C@H]3[C@@](O)(C(=O)OC)[C@H](OC(C)=O)[C@]5(CC)C=CCN6CC[C@]43[C@@H]65)C2)C1` [vincristine] + OCc1c[nH]c2ccccc12 [Indole-3-carbinol] (first compound 0.0001 µM, partner dose 0.8 µM), the “cleaved PARP positive nuclei fraction” value worked out at 59.7%.

Turning to `O=c1[nH]nc(Sc2ncc([N+](=O)[O-])s2)n1-c1ccc2c(c1)OCCO2` + Cn1cnc2c(F)c(Nc3ccc(Br)cc3Cl)c(C(=O)NOCCO)cc21 [selumetinib] (first compound 0.2 µM, partner dose 0.015 µM), the “cleaved PARP positive nuclei fraction” value turned out to be 210%.

Take `CC[C@]1(O)C[C@H]2CN(CCc3c([nH]c4ccccc34)[C@@](C(=O)OC)(c3cc4c(cc3OC)N(C=O)[C@H]3[C@@](O)(C(=O)OC)[C@H](OC(C)=O)[C@]5(CC)C=CCN6CC[C@]43[C@@H]65)C2)C1` [vincristine] + CS(=O)(=O)c1ccc(C(=O)Nc2ccc(Cl)c(-c3ccccn3)c2)c(Cl)c1 [vismodegib] (first compound 0.0001 µM, partner dose 1 µM): the “cleaved PARP positive nuclei fraction” value came to 52.8%.

Take `O=c1[nH]nc(Sc2ncc([N+](=O)[O-])s2)n1-c1ccc2c(c1)OCCO2` + Nc1ccn([C@@H]2O[C@H](CO)[C@@H](O)C2(F)F)c(=O)n1 [gemcitabine] (first compound 0.2 µM, partner dose 0.0004 µM): the “cleaved PARP positive nuclei fraction” value was 118%.

With `CCCCCCCCCCCCCCCCCCOP(=O)([O-])OC1CC[N+](C)(C)CC1` [Perifosine] + Cc1cc(Nc2cc(N3CCN(C)CC3)nc(/C=C/c3ccccc3)n2)n[nH]1 [ENMD2076] (first compound 0.4 µM, partner dose 0.04 µM), the “cleaved PARP positive nuclei fraction” value came out at 65.9%.

As to `O=C(Nc1cc(C(F)(F)F)cc(C(F)(F)F)c1)c1cc(Cl)ccc1O` + Cn1cnc2c(F)c(Nc3ccc(Br)cc3Cl)c(C(=O)NOCCO)cc21 [selumetinib] (first compound 0.016 µM, partner dose 0.015 µM), the “cleaved PARP positive nuclei fraction” value is 107%.

`Cc1ccc(Nc2nccc(N(C)c3ccc4c(C)n(C)nc4c3)n2)cc1S(N)(=O)=O` [Pazopanib] + CC(=O)c1c(C)c2cnc(Nc3ccc(N4CCNCC4)cn3)nc2n(C2CCCC2)c1=O [palbociclib] (first compound 0.4 µM, partner dose 0.04 µM): the “cleaved PARP positive nuclei fraction” value was determined as 68.6%.

For `CC[C@]1(O)C[C@H]2CN(CCc3c([nH]c4ccccc34)[C@@](C(=O)OC)(c3cc4c(cc3OC)N(C=O)[C@H]3[C@@](O)(C(=O)OC)[C@H](OC(C)=O)[C@]5(CC)C=CCN6CC[C@]43[C@@H]65)C2)C1` [vincristine] + C#Cc1cccc(Nc2ncnc3cc(OCCOC)c(OCCOC)cc23)c1 [erlotinib] (first compound 0.0001 µM, partner dose 0.8 µM), the “cleaved PARP positive nuclei fraction” value stood at 220%.

On to `N#CC[C@H](C1CCCC1)n1cc(-c2ncnc3[nH]ccc23)cn1` [ruxolitinib] + O=C(O)[C@@H]1[O][Sb](=[O])([O][Sb]2(=[O])[O][C@H]([C@H](O)CO)[C@H](O)[C@H](C(=O)O)[O]2)[O][C@H]([C@H](O)CO)[C@@H]1O [stibogluconate] (first compound 1 µM, partner dose 2 µM), for which the “cleaved PARP positive nuclei fraction” value was determined as 74.2%.

For the molecule `Cc1cn(-c2cc(NC(=O)c3ccc(C)c(Nc4nccc(-c5cccnc5)n4)c3)cc(C(F)(F)F)c2)cn1` [nilotinib] + CC(=O)O[C@@]12CO[C@@H]1C[C@H](O)[C@@]1(C)C(=O)[C@H](O)C3=C(C)[C@@H](OC(=O)[C@H](O)[C@@H](NC(=O)OC(C)(C)C)c4ccccc4)C[C@@](O)([C@@H](OC(=O)c4ccccc4)[C@H]21)C3(C)C [Docetaxel] (first compound 0.2 µM, partner dose 0.0001 µM), the “cleaved PARP positive nuclei fraction” value turned out to be 186%.

Take `COc1cc([C@@H]2c3cc4c(cc3[C@@H](O[C@@H]3O[C@@H]5CO[C@@H](C)O[C@H]5[C@H](O)[C@H]3O)[C@H]3COC(=O)[C@H]23)OCO4)cc(OC)c1O` [etoposide] + Cc1nc(Nc2ncc(C(=O)Nc3c(C)cccc3Cl)s2)cc(N2CCN(CCO)CC2)n1 [dasatanib] (first compound 0.02 µM, partner dose 0.004 µM): the “cleaved PARP positive nuclei fraction” value was 105%.

`CC[C@]1(O)C[C@H]2CN(CCc3c([nH]c4ccccc34)[C@@](C(=O)OC)(c3cc4c(cc3OC)N(C=O)[C@H]3[C@@](O)(C(=O)OC)[C@H](OC(C)=O)[C@]5(CC)C=CCN6CC[C@]43[C@@H]65)C2)C1` [vincristine] + Cc1ccc(Nc2nccc(N(C)c3ccc4c(C)n(C)nc4c3)n2)cc1S(N)(=O)=O [Pazopanib] (first compound 0.0001 µM, partner dose 0.4 µM): the “cleaved PARP positive nuclei fraction” value was found to be 56.5%.

Consider `O=C(/C=C/c1cccnc1)NCCCCC1CCN(C(=O)c2ccccc2)CC1` + Cn1c(=O)n(-c2ccc(C(C)(C)C#N)cc2)c2c3cc(-c4cnc5ccccc5c4)ccc3ncc21 [NVP-BEZ235] (first compound 0.01 µM, partner dose 0.004 µM), for which the “cleaved PARP positive nuclei fraction” value was 905%.

As to `O=C(/C=C/c1cccnc1)NCCCCC1CCN(C(=O)c2ccccc2)CC1` + Cc1cn(-c2cc(NC(=O)c3ccc(C)c(Nc4nccc(-c5cccnc5)n4)c3)cc(C(F)(F)F)c2)cn1 [nilotinib] (first compound 0.01 µM, partner dose 0.2 µM), the “cleaved PARP positive nuclei fraction” value was found to be 538%.

On to `O=C(/C=C/c1cccnc1)NCCCCC1CCN(C(=O)c2ccccc2)CC1` + COCC[n+]1c2c(n(Cc3cnccn3)c1C)C(=O)c1ccccc1C2=O [YM155] (first compound 0.01 µM, partner dose 0.0004 µM), for which the “cleaved PARP positive nuclei fraction” value turned out to be 511%.

As for `COc1cc([C@@H]2c3cc4c(cc3[C@@H](O[C@@H]3O[C@@H]5CO[C@@H](C)O[C@H]5[C@H](O)[C@H]3O)[C@H]3COC(=O)[C@H]23)OCO4)cc(OC)c1O` [etoposide] + O=c1[nH]nc(Sc2ncc([N+](=O)[O-])s2)n1-c1ccc2c(c1)OCCO2 [BI78D3] (first compound 0.02 µM, partner dose 0.2 µM), the “cleaved PARP positive nuclei fraction” value amounted to 104%.
